# Primary screen of a compound library

By UniProt entry, the sequences of proteins in these tests, tags left out.
UniProt E9BF75, entry or part of it: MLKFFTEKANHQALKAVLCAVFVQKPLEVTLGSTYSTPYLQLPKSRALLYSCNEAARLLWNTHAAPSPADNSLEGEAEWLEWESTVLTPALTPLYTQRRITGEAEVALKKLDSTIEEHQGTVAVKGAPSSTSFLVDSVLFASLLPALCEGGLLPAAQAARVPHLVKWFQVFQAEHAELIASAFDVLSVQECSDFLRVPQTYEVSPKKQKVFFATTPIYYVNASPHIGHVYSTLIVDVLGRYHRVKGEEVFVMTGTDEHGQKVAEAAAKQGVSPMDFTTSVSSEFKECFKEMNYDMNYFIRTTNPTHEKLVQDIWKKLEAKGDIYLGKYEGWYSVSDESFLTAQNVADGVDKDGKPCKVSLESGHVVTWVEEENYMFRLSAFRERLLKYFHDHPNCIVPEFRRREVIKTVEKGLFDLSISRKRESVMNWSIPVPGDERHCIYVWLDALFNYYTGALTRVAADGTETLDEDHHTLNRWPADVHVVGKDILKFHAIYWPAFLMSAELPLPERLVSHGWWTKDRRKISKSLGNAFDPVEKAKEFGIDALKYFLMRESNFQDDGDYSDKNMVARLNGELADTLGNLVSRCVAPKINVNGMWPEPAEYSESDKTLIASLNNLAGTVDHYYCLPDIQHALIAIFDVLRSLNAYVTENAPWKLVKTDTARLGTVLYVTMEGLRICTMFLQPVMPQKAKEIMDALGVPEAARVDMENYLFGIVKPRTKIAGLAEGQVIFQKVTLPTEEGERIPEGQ

A: 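Assay on Mycobacterium tuberculosis, filed only as a heat shock assay from Cornell; the read-out is not stated. The concentration is filed as 10 mM, unlikely as a test dose, so the dose is not known. Direction is inferred from retests: higher values go with stronger inhibition. Of about 69,000 compounds tested this way, about 930 (1.4%) reached 50% or more in at least one test.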
B: 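Primary screen of methionyl-tRNA synthetase; the read-out is not stated. Target: Methionyl-tRNA synthetase (putative), Leishmania donovani (UniProt E9BF75). The test concentration is not given. The values are filed as inhibition. Size under these conditions: about 68,000 compounds, about 24 of them at 50% or above in at least one test.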
C: 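Whole-cell assay for inhibitors of Mycobacterium tuberculosis growth, labelled Cornell in the record; the read-out is not stated. The concentration is filed as 10 mM, unlikely as a test dose, so the dose is not known. Higher means stronger inhibition (inferred from two other growth screens of the library). About 53,000 compounds were tested under these conditions; 1.7% (about 900) showed 50% or more at least once.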

Results are percentages, as filed.
The record does not define 0% and 100%; most values in the screen are far below 50% and negative numbers occur (in some assays of this library far below -100).
The compounds are a random part of those screened.

COCC1CN(C(=O)CS(C)(=O)=O)Cc2ncn(CC3CC3)c21 (stereo not shown) gave A: -20.58%; B: 12.69%.
CC(C)c1ccc(-n2nnc(C(=O)O)c2-c2ccccn2)cc1 gave A: 6.61%; B: 11.82%; C: -41.24%.
O=C(O)C(F)(F)F.O=C(O)C(F)(F)F.[H][C@]12CN(C)C[C@@]1(C(=O)O)CCCN(Cc1ccc(C)s1)C2 gave A: 10.8%; C: -7.226%.
COc1cccc(OCC(=O)N(C)c2cccnc2)c1 gave A: -14.44%; B: 11.53%; C: -8.128%.
CCC(=O)NC1CCCN(Cc2ccc(-n3ccnc3)cc2)C1 (stereo not shown) gave A: 22.3%; B: 10.63%; C: 19.58%.
Cc1c(NCc2cccnc2)cccc1C(=O)N1CCC(N(C)C)C1 (stereo not shown) gave A: -5.881%; B: 19%; C: 14.2%.
CCC1CN(C)c2ccccc2CN1C(=O)CCn1cncn1 (stereo not shown) gave A: -8.254%; B: 21.22%; C: -27.84%.
CCC(=O)N1CCN(C(=O)c2ccc(COC)o2)[C@H]2CS(=O)(=O)C[C@H]21 gave B: 10.13%.
COCCCNc1cc(C(=O)N2CCOCC2)ccc1C gave A: 6.97%; B: 8.591%.
Cc1cc2nc(SCC(=O)NC(C)C)n(Cc3ccco3)c(O)c-2n1 gave A: -0.4532%; B: 12.75%; C: 8.573%.
[H][C@]12CCN(C(=O)Cc3cccc(OC)c3)[C@@]1([H])CCC(=O)N2C gave A: -36.16%; C: -0.7576%.
Cc1ccc(CN2CCC3(CC2)CCN(C(=O)c2cccnc2)C3)o1 gave B: 12.4%.
[H][C@@]12CN(c3nc(C)ccc3C(N)=O)C[C@]1([H])N(C1CCCC1)C(=O)O2 gave A: 3.765%; C: -19.12%.
CCc1nnc2n1CCN(Cc1nnc(-c3occc3C)o1)C2 gave A: -6.472%; B: 23.41%; C: -3.481%.
Cc1cc(C)n(C2CCCN(C(=O)c3ccc(F)cc3F)C2)n1 (stereo not shown) gave A: 5.168%; B: 20.95%; C: 21.11%.
CN(C)c1ncc2c(n1)CCCC2NC(=O)C1CC1 (stereo not shown) gave A: 1.055%; B: 8.511%; C: 6.459%.
CCc1nc2n(n1)CC(NCC(=O)Nc1ccc(Cl)cn1)CC2 (stereo not shown) gave A: 1.745%; B: 7.981%; C: -0.2568%.
CN(CC(=O)N(C)C1CCCCC1)C1CCc2ccccc21 (stereo not shown) gave A: -3.861%; B: 11.22%.
CC(NC(=O)CSCC#N)c1ccccc1 (stereo not shown) gave A: 3.145%; B: 7.087%; C: 12.77%.
Cc1nc(CN2CCCC(N(C)Cc3nnc(C4CC4)o3)C2)no1 (stereo not shown) gave A: 25.89%; B: 3.093%; C: -43.7%.
[H][C@]12CC[C@]([H])(CN(c3ncccn3)C1)N(C(=O)c1cc(F)ccc1OC)C2 gave A: 7.794%; C: 18.29%.
O=C(CN(CC(O)c1ccc(F)cc1)C1CC1)Nc1cccnc1 (stereo not shown) gave A: -20.84%; B: 4.79%; C: -10.27%.
COCCC(=O)N1C[C@H]2CC[C@@H]1CN(C1Cc3ccccc3C1)C2 gave B: 12.81%.
CN(CCc1ccccn1)c1cnn(C)c(=O)c1Br gave A: -12.62%; B: 4.954%; C: 2.275%.
Cc1cccc(C(=O)N(C)C2CCN(c3ccccn3)CC2)c1C gave A: 3.189%; B: 11.6%.
CNC(=O)CNC(=O)NCc1cc2c(s1)CCC(C)(C)C2 gave A: 0.9497%; B: 12.57%; C: 2.233%.
[H][C@@]12C[C@H](C(=O)N3CCCC3)[C@@]([H])(CN(C(=O)NCc3ccccc3)C1)O2 gave A: 12.84%; C: -9.066%.

Source: ChEMBL document CHEMBL3988442, “University of Dundee, Small-Polar-MMV Screening Library” (2021).